# Laboratory results as given in paper PMC5791736.
# Sequences of proteins named here, by UniProt entry; tags and fusion partners are left off.
# UniProt Q8TDY2: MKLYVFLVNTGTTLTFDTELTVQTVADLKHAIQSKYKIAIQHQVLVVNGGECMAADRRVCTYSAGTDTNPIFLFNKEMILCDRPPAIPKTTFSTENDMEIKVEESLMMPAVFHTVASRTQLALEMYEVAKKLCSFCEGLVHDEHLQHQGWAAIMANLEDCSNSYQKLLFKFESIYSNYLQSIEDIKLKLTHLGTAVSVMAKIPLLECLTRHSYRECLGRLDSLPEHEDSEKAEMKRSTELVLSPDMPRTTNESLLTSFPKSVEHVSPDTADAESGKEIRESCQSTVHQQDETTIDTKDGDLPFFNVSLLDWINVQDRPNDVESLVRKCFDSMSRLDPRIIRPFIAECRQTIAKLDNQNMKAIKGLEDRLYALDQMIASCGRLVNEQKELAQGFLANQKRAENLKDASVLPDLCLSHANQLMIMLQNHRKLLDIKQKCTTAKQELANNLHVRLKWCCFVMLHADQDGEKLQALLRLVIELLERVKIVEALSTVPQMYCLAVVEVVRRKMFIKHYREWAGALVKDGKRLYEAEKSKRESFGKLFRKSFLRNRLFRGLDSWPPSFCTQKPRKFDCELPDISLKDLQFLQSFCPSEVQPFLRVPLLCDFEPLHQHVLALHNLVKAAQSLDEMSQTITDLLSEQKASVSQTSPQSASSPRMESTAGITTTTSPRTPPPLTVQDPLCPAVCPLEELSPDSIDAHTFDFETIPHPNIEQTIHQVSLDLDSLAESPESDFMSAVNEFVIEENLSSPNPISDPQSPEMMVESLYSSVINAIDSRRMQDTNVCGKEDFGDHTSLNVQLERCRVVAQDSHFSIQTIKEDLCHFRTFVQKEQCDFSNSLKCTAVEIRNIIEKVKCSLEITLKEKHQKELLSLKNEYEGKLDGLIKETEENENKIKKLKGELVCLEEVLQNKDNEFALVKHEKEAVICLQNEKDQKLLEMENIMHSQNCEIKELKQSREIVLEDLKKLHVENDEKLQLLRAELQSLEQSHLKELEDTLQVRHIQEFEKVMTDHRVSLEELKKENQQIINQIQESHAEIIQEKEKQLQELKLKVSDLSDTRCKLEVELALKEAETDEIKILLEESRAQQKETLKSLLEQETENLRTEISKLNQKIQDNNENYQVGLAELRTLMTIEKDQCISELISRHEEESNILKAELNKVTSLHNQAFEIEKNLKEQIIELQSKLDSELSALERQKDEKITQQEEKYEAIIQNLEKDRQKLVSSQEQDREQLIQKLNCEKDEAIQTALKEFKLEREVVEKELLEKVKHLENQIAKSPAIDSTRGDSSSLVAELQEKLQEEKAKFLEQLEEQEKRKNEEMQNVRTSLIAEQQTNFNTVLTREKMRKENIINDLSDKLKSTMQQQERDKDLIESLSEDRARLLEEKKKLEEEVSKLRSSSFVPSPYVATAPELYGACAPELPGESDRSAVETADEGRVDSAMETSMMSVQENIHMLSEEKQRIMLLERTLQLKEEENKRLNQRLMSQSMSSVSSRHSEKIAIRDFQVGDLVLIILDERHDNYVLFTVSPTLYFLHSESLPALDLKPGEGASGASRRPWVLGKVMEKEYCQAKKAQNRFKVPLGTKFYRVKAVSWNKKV
# No constants are given. Whether binding was seen depends on the method and setting. Binding seen in cells or lysates may run through a third protein. A yes stands for co-enrichment or nearness to the bait. Other partners may have been found. Tags and fused reporters may be left off the sequences shown.
# Biological target: T1, NTAP (FLAG-HA)-CCPG1 (human) (UniProt Q9ULG6)
# T1 sequence: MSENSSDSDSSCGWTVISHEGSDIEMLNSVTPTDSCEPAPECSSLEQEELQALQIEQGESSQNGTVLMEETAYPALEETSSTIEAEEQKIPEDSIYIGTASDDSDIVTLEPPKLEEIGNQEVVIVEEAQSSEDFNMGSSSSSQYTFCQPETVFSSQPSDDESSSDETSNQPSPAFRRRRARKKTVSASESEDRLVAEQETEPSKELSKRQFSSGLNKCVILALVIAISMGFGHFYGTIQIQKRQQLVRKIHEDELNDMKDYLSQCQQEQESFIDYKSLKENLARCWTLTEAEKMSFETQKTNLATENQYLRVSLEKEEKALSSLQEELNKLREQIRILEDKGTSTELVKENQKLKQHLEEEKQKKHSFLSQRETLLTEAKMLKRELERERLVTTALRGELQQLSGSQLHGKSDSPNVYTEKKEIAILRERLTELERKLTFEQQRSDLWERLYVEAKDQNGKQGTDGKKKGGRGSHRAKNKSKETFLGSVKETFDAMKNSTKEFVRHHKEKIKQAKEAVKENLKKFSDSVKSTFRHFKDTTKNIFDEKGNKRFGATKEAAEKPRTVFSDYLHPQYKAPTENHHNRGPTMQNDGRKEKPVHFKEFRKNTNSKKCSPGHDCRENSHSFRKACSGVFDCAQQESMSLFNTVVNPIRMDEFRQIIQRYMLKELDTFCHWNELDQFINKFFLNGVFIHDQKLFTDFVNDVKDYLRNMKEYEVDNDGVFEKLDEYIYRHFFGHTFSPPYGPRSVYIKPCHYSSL
# Test: affinity purification with mass spectrometry; anti-HA-agarose immunoprecipitation from A549 NTAP (FLAG-HA)-CCPG1 lysate (50 mM Tris-HCl pH 7.5, 150 mM NaCl, 0.5% Nonidet P40), HA peptide elution, LC-MS/MS, CompPASS
substance,measurement,value
"FIP200 (endogenous, A549) (from UniProt Q8TDY2 1-1594)",binding,binds
